{"source": "paper doi:10.1101/2024.08.17.24311658", "binders": {"B1": {"name": "chimeric protein of the cytoplasmic tail of Human-SLITRK2 (domain or fragment, UniProt Q9H156 643-845)", "chain": "VLKRRKGVPSVPRNTNNLDVSSFQLQYGSYNTETHDKTDGHVYNYIPPPVGQMCQNPIYMQKEGDPVAYYRNLQEFSYSNLEEKKEEPATPAYTISATELLEKQATPREPELLYQNIAERVKELPSAGLVHYNFCTLPKRQFAPSYESRRQNQDRINKTVLYGTPRKCFVGQSKPNHPLLQAKPQSEPDYLEVLEKQTAISQL"}, "B2": {"name": "chimeric protein of the cytoplasmic tail of Human-SLITRK3 (domain or fragment, UniProt O94933 676-977)", "chain": "AYVLRRRRKKLPFRSKRQEGVDLTGIQMQCHRLFEDGGGGGGGSGGGGRPTLSSPEKAPPVGHVYEYIPHPVTQMCNNPIYKPREEEEVAVSSAQEAGSAERGGPGTQPPGMGEALLGSEQFAETPKENHSNYRTLLEKEKEWALAVSSSQLNTIVTVNHHHPHHPAVGGVSGVVGGTGGDLAGFRHHEKNGGVVLFPPGGGCGSGSMLLDRERPQPAPCTVGFVDCLYGTVPKLKELHVHPPGMQYPDLQQDARLKETLLFSAGKGFTDHQTQKSDYLELRAKLQTKPDYLEVLEKTTYRF"}, "B3": {"name": "chimeric protein of the cytoplasmic tail of Human-SLITRK5 (domain or fragment, UniProt O94991 686-958)", "chain": "VLVMKRRKKNQSDHTSTNNSDVSSFNMQYSVYGGGGGTGGHPHAHVHHRGPALPKVKTPAGHVYEYIPHPLGHMCKNPIYRSREGNSVEDYKDLHELKVTYSSNHHLQQQQQPPPPPQQPQQQPPPQLQLQPGEEERRESHHLRSPAYSVSTIEPREDLLSPVQDADRFYRGILEPDKHCSTTPAGNSLPEYPKFPCSPAAYTFSPNYDLRRPHQYLHPGAGDSRLREPVLYSPPSAVFVEPNRNEYLELKAKLNVEPDYLEVLEKQTTFSQF"}, "B4": {"name": "NPIA mutant of the Human-SLITRK2 cytoplasmic tail chimera (domain or fragment, UniProt Q9H156 643-845)", "chain": "B1 chain with Y59A"}, "B5": {"name": "NPIA mutant of the Human-SLITRK3 cytoplasmic tail chimera (domain or fragment, UniProt O94933 676-977)", "chain": "B2 chain with Y81A"}, "B6": {"name": "NPIA mutant of the Human-SLITRK5 cytoplasmic tail chimera (domain or fragment, UniProt O94991 686-958)", "chain": "B3 chain with Y80A"}}, "note": "Where a chain is given by its changes, count along the chain named. These are yes or no findings as the source states them, for the method shown. In cells and extracts the contact can be indirect. Some results given as binding are weak or reduced against the parent protein; the word gives no strength. Sequences can lack the tags named with a protein."}
{"target": "T1, mCherry-SNX17 (UniProt Q15036)", "T1 sequence": "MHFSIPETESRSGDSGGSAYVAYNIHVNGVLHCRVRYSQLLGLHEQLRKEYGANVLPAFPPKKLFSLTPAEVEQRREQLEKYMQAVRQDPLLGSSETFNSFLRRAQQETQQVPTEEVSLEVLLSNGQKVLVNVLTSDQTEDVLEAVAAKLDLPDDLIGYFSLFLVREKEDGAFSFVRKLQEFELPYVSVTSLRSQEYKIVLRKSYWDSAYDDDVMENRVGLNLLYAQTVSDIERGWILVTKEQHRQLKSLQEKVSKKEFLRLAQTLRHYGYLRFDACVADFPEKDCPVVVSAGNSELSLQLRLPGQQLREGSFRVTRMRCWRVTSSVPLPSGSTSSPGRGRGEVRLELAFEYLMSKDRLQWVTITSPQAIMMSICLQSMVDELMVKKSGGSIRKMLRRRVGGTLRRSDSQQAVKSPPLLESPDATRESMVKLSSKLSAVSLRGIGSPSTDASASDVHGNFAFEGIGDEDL", "assay": "co-IP"}
{"binder": "B1", "binding": "binds"}
{"binder": "B2", "binding": "binds"}
{"binder": "B3", "binding": "binds"}
{"binder": "YFSRLQGKSSLQLPRPRPRPYNRITIESAFDNPTYETGSLSFAGDERI (domain or fragment, UniProt Q53EL9 947-994)", "note": "[GFP-tagged wild-type cytoplasmic tail domain of Human-SEZ6]", "binding": "binds"}
{"binder": "TRCRYYSNLRLPLMYSHPYSQITVETEFDNPIYETGETREYEVSI (domain or fragment, UniProt Q9BYH1 980-1024)", "note": "[GFP-tagged wild-type cytoplasmic tail domain of Human-SEZ6L]", "binding": "binds"}
{"binder": "YYTKLQGKSLFGFSGSHSYSPITVESDFSNPLYEAGDTREYEVSI (domain or fragment, UniProt Q6UXD5 866-910)", "note": "[GFP-tagged wild-type cytoplasmic tail domain of Human-SEZ6L2]", "binding": "binds"}
{"binder": "B4", "binding": "no binding"}
{"binder": "B5", "binding": "no binding"}
{"binder": "B6", "binding": "no binding"}
{"binder": "YFSRLQGKSSLQLPRPRPRPYNRITIESAFDNPTAETGSLSFAGDERI (domain or fragment, UniProt Q53EL9 947-994)", "note": "[ΦxNPxA mutant of the GFP-tagged cytoplasmic tail domain of Human-SEZ6]", "binding": "no binding"}
{"binder": "TRCRYYSNLRLPLMYSHPYSQITVETEFDNPIAETGETREYEVSI (domain or fragment, UniProt Q9BYH1 980-1024)", "note": "[ΦxNPxA mutant of the GFP-tagged cytoplasmic tail domain of Human-SEZ6L]", "binding": "no binding"}
{"binder": "YYTKLQGKSLFGFSGSHSYSPITVESDFSNPLAEAGDTREYEVSI (domain or fragment, UniProt Q6UXD5 866-910)", "note": "[ΦxNPxA mutant of the GFP-tagged cytoplasmic tail domain of Human-SEZ6L2]", "binding": "no binding"}
